Data: PubChem BioAssay AID330 (DTP/NCI, 2004)
The list is a part of this screen's results and no random one: it gathers tests that were run many times, whatever their T/C, doses with no T/C, and many T/C values between a quarter and a half above the control. Other doses and runs of a compound stand elsewhere. T/C: endpoint of the treated group in % of that of the vehicle group. Some entries give survivors of the animals treated and no T/C: the source holds a T/C of zero for them, seemingly a mark for toxic or unscored doses. Some survivor counts are full or nearly so, which does not show that the dose was tolerated: survival well below the control is almost never listed, so the zero probably covers shortened survival too. Counts of survivors are from the toxicity check (mostly the fifth day) where no day follows; animals may have died later. Schedule codes are those of the source, read here as Q, the interval in days (D) or hours (H), X, the number of doses. Counts like (3×) give the number of equal values in this list. Some entries hold several experiments; the values are given in rising order. For survival time, this PubChem deposit counts one and a half times the control or more as active, and values a quarter to a half above the control carry no call in these data; other NCI protocols may use other cut-offs. Some T/C values carry the count of animals alive at the toxicity check (mostly the fifth day); without a count, all were alive then.

Tested on: P388 leukemia ip, CD2F1 mice, survival T/C
Assay: NCI In Vivo Anticancer Drug Screen. Data for tumor model P388 Leukemia (intraperitoneal) in CD2F1 (CDF1) mice
Details: T/C endpoint: median survival time, higher T/C = longer survival
[1] = dose: 0.25 mg/kg/injection, schedule: Q01DX005 (ip), vehicle: saline
[2] = dose: 100.0 mg/kg/injection, schedule: Q01DX005 (ip), vehicle: Klucel (hydroxypropylcellulose) (HPC)
[3] = dose: 200.0 mg/kg/injection, schedule: Q01DX005 (ip), vehicle: Klucel (hydroxypropylcellulose) (HPC)
[4] = dose: 200.0 mg/kg/injection, schedule: Q01DX005 (ip), vehicle: water
[5] = dose: 240.0 mg/kg/injection, schedule: Q01DX005 (ip), vehicle: saline
[6] = dose: 200.0 mg/kg/injection, schedule: Q01DX009 (ip), vehicle: saline with Tween-80
[7] = dose: 240.0 mg/kg/injection, schedule: Q01DX005 (ip), vehicle: saline with Tween-80

For `COc1c2c(c(O)c3c4c(c(C)cc13)C1OC3(C(OC)OC5CC(C)(O)C(OC6CC(C)(O)C(O)C(C)O6)C(C)O5)OC1C(OC)(O4)C31CO1)C(=O)C(O)CC2OC1CC(C)(O)C(OC(C)=O)C(C)O1` (stereo not given), which T/C (dose: 0.03 mg/kg/injection, schedule: Q01DX005 (ip), vehicle: saline) is on record?
Its T/C is 138 % of control.

And the T/C (dose: 0.06 mg/kg/injection, schedule: Q01DX005 (ip), vehicle: saline)?
Its T/C is 148 % of control.

What about the T/C [1] of the same compound?
The T/C was 149 % of control.

What about the survivor count [1] of the same compound?
Its survivor count is 6 of 6.

And the survivor count (dose: 0.5 mg/kg/injection, schedule: Q01DX005 (ip), vehicle: saline)?
The survivor count was 6 of 6 (2×).

And the survivor count (dose: 1.0 mg/kg/injection, schedule: Q01DX005 (ip), vehicle: saline)?
Its survivor count is 3 of 6 and 6 of 6.

Which survivor count (dose: 6.0 mg/kg/injection, schedule: Q01DX009 (ip), vehicle: Klucel (hydroxypropylcellulose) (HPC)) does the source give for `C[CH2][Pb]([CH2]C)([CH2]C)[n]1cnc2ccccc21` here?
The survivor count was 4 of 6.

And the survivor count (dose: 12.0 mg/kg/injection, schedule: Q01DX009 (ip), vehicle: Klucel (hydroxypropylcellulose) (HPC))?
The survivor count was 0 of 6.

`CC(C)(O)/C=C/C(=O)[C@](C)(O)[C@H]1[C@H](O)C[C@@]2(C)[C@@H]3CC=C4[C@@H](C[C@H](O)C(=O)C4(C)C)[C@]3(C)C(=O)C[C@]12C` was tested. Which T/C (dose: 0.42 mg/kg/injection, schedule: Q01DX009 (ip), vehicle: saline + Tween-80 + alcohol) did it give?
Its T/C is 137 % of control [4 of 6 alive].

And the T/C (dose: 0.63 mg/kg/injection, schedule: Q01DX009 (ip), vehicle: saline + Tween-80 + alcohol)?
Its T/C is 146 % of control [5 of 6 alive].

What about the T/C (dose: 1.0 mg/kg/injection, schedule: Q01DX010 (ip), vehicle: saline) of the same compound?
Its T/C is 131 % of control.

And the survivor count (dose: 1.4 mg/kg/injection, schedule: Q01DX009 (ip), vehicle: saline with Tween-80)?
The survivor count was 0 of 6.

And the survivor count (dose: 2.0 mg/kg/injection, schedule: Q01DX009 (ip), vehicle: saline with Tween-80)?
The survivor count was 0 of 6.

What about the survivor count (dose: 2.0 mg/kg/injection, schedule: Q01DX009 (ip), vehicle: saline) of the same compound?
Its survivor count is 0 of 6.

And the survivor count (dose: 2.0 mg/kg/injection, schedule: Q01DX010 (ip), vehicle: saline)?
Its survivor count is 3 of 6.

What about the survivor count (dose: 2.2 mg/kg/injection, schedule: Q01DX009 (ip), vehicle: saline with Tween-80) of the same compound?
Its survivor count is 0 of 6.

And the survivor count (dose: 4.0 mg/kg/injection, schedule: Q01DX009 (ip), vehicle: saline)?
The survivor count was 0 of 6.

What about the survivor count (dose: 5.0 mg/kg/injection, schedule: Q01DX009 (ip), vehicle: saline with Tween-80) of the same compound?
The survivor count was 0 of 6.

What about the survivor count (dose: 10.0 mg/kg/injection, schedule: Q01DX009 (ip), vehicle: saline with Tween-80) of the same compound?
The survivor count was 0 of 6.

What about the survivor count (dose: 20.0 mg/kg/injection, schedule: Q01DX009 (ip), vehicle: saline with Tween-80) of the same compound?
The survivor count was 0 of 6.

And the survivor count (dose: 40.0 mg/kg/injection, schedule: Q01DX009 (ip), vehicle: saline with Tween-80)?
Its survivor count is 0 of 6.

For `O=C(Oc1cccc2cccnc12)c1ccc2ccccc2n1`, which survivor count (dose: 400.0 mg/kg/injection, schedule: Q04DX002 (ip), vehicle: saline with Tween-80) is on record?
Its survivor count is 4 of 6.

How did the T/C (dose: 3.13 mg/kg/injection, schedule: Q01DX005 (ip), vehicle: saline with Tween-80) turn out when `CN=C(NC)c1cccc(NC(=O)/C=C\c2ccc(/C=C/C(=O)Nc3cccc(C(=NC)NC)c3)cc2)c1` was run?
The T/C was 130 % of control.

And the T/C (dose: 6.25 mg/kg/injection, schedule: Q01DX005 (ip), vehicle: saline with Tween-80)?
Its T/C is 138 and 143 % of control [4 of 6 alive].

What about the survivor count (dose: 12.5 mg/kg/injection, schedule: Q01DX005 (ip), vehicle: saline with Tween-80) of the same compound?
The survivor count was 0 of 6.

And the survivor count (dose: 25.0 mg/kg/injection, schedule: Q01DX005 (ip), vehicle: saline with Tween-80)?
Its survivor count is 0 of 6.

What about the survivor count (dose: 50.0 mg/kg/injection, schedule: Q01DX005 (ip), vehicle: saline with Tween-80) of the same compound?
Its survivor count is 0 of 6.

And the survivor count (dose: 100.0 mg/kg/injection, schedule: Q01DX005 (ip), vehicle: saline with Tween-80)?
The survivor count was 0 of 6.

And the survivor count (dose: 200.0 mg/kg/injection, schedule: Q01DX005 (ip), vehicle: saline with Tween-80)?
Its survivor count is 0 of 6.

What does the source list for `[CH3][Sn]1([CH3])[O]C2C(O)OC(CO)C(O)C2[O]1` (stereo not given)?
T/C (dose: 50.0 mg/kg/injection, schedule: Q01DX005 (ip), vehicle: Klucel (hydroxypropylcellulose) (HPC)): 118 (2×), 120, 121 % of control; survivor count [2]: 2 of 6; survivor count [3]: 0 of 6

Which results are given for `CN(C)CCSc1c2ccccc2nc2ccccc12`?
survivor count (dose: 12.5 mg/kg/injection, schedule: Q01DX005 (ip), vehicle: Klucel (hydroxypropylcellulose) (HPC)): 6 of 6; survivor count [2]: 1 of 6; survivor count [3]: 0 of 6

How did the T/C (dose: 25.0 mg/kg/injection, schedule: Q01DX005 (ip), vehicle: water) turn out when `O=C1CN(CCN2CC(=O)N(CN3CCOCC3)C(=O)C2)CC(=O)N1CN1CCOCC1` was run?
Its T/C is 134 % of control.

And the T/C (dose: 50.0 mg/kg/injection, schedule: Q01DX005 (ip), vehicle: water, evaluated on day 30)?
Its T/C is 162, 163, 203 % of control.

And the T/C (dose: 50.0 mg/kg/injection, schedule: Q01DX005 (ip), vehicle: water, evaluated on day 60)?
Its T/C is 123 % of control.

What about the T/C (dose: 100.0 mg/kg/injection, schedule: Q01DX005 (ip), vehicle: water, evaluated on day 30) of the same compound?
Its T/C is 163, 180 [5 of 6 alive], 242 % of control.

And the T/C (dose: 100.0 mg/kg/injection, schedule: Q01DX005 (ip), vehicle: water, evaluated on day 60)?
Its T/C is 186 % of control.

What about the T/C [4] of the same compound?
Its T/C is 86 [5 of 6 alive] and 198 % of control.

And the survivor count [4]?
Its survivor count is 1 of 6 and 9 of 10.

`CCCCC(CN(C)C)C(=O)/C=C/c1ccccc1` (stereo not given) was tested. Which survivor count [5] did it give?
Its survivor count is 0 of 6.

Which survivor count [5] does the source give for `CCCN1CCc2cc3c(cc2C1)OCO3` here?
Its survivor count is 0 of 6.

What does the source list for `O=C1CCS(=O)(=O)c2ccccc21`?
survivor count (dose: 100.0 mg/kg/injection, schedule: Q01DX009 (ip), vehicle: saline with Tween-80): 6 of 6; survivor count [6]: 0 of 6; survivor count (dose: 400.0 mg/kg/injection, schedule: Q01DX009 (ip), vehicle: saline with Tween-80): 0 of 6

How did the survivor count [6] turn out when `O=S1(=O)CC(N2CCCCC2)C2=C(O1)c1ccccc1SC2` (stereo not given) was run?
The survivor count was 6 of 6.

How did the T/C [7] turn out when `C=C1NC(=O)C(N)=C1C(C)=O` was run?
The T/C was 125 % of control.

`COc1ccc(OC)c(N(CCN2C(=O)c3ccccc3C2=O)C(=O)C2CCC(=O)C2C)c1` (stereo not given) was tested. Which survivor count [7] did it give?
Its survivor count is 6 of 6.

How did the survivor count (dose: 12.5 mg/kg/injection, schedule: Q01DX005 (ip), vehicle: suspension in saline) turn out when `C=C(CN(C)C)C(=O)c1ccccc1C` was run?
Its survivor count is 1 of 6.

And the survivor count (dose: 25.0 mg/kg/injection, schedule: Q01DX005 (ip), vehicle: suspension in saline)?
Its survivor count is 0 of 6.

What about the survivor count (dose: 60.0 mg/kg/injection, schedule: Q01DX005 (ip), vehicle: saline) of the same compound?
Its survivor count is 0 of 6.

And the survivor count (dose: 120.0 mg/kg/injection, schedule: Q01DX005 (ip), vehicle: saline)?
Its survivor count is 0 of 6.

And the survivor count [5]?
Its survivor count is 0 of 6.

With `CC1(C)N=C(N)N=C(N)N1c1ccc(CCCCc2ccc(Cl)c(S(=O)(=O)F)c2)c(Cl)c1` as the compound, how does the T/C (dose: 1.0 mg/kg/injection, schedule: Q01DX009 (ip), vehicle: saline with Tween-80) read?
The T/C was 141 % of control.

What about the T/C (dose: 2.2 mg/kg/injection, schedule: Q01DX009 (ip), vehicle: saline) of the same compound?
Its T/C is 135 % of control.

What about the T/C (dose: 3.3 mg/kg/injection, schedule: Q01DX009 (ip), vehicle: saline) of the same compound?
Its T/C is 130 % of control.

What about the T/C (dose: 4.0 mg/kg/injection, schedule: Q01DX009 (ip), vehicle: saline with Tween-80) of the same compound?
The T/C was 137 % of control.

And the T/C (dose: 5.0 mg/kg/injection, schedule: Q01DX009 (ip), vehicle: saline)?
Its T/C is 140 % of control.

What about the T/C (dose: 5.5 mg/kg/injection, schedule: Q01DX009 (ip), vehicle: saline) of the same compound?
The T/C was 131 % of control.

What about the T/C (dose: 7.5 mg/kg/injection, schedule: Q01DX009 (ip), vehicle: saline) of the same compound?
The T/C was 145 % of control.

What about the T/C (dose: 8.0 mg/kg/injection, schedule: Q01DX009 (ip), vehicle: saline) of the same compound?
Its T/C is 136 % of control.

What about the T/C (dose: 12.0 mg/kg/injection, schedule: Q01DX009 (ip), vehicle: saline) of the same compound?
Its T/C is 145 % of control.

What about the survivor count (dose: 40.0 mg/kg/injection, schedule: Q01DX009 (ip), vehicle: saline) of the same compound?
Its survivor count is 2 of 6.
